Hit rate of the full screen: of about 340,000 compounds, about 170 (0.05%) were called active. The inconclusive results got no clear call from the source; some entries with a clear call stand among them for comparison. The call rests on the fitted dose curve; in most records, active means well fitted inhibition curve with a large enough effect in the signal ratio, with a control signal flat (not every such curve was filed as active); inconclusive means small, poorly fitted or top-dose-only effect, or effect the other way, or a change in a side signal; inactive means flat fitted curve, though single readings scatter; the % refers to the signal ratio. A potency beside an inconclusive call is a rough fit, not a confirmed value.
Assay: qHTS Assay to Find Inhibitors of Chronic Active B-Cell Receptor Signaling
Conditions: ABC-DLBCL IkBa-CBG/CBR reporter, luminescence ratio (green luciferase fused to IkBa over red control in TMD8 lymphoma cells), 4 h; activity change, negative = inhibition: at 46.1 µM (top of the series)
Source text: NIH Molecular Libraries Probe Production Network [MLPCN] NIH Chemical Genomics Center [NCGC] MLPCN Grant: 1 R03 DA031086-01A1 PI Name: Dr. R. Eric Davis NCGC Assay Overview: Diffuse large B-cell lymphoma (DLBCL) is the most common category of non-Hodgkin lymphoma, with ~20,000 new cases per year in the United States. DLBCL should be regarded as a collection of different neoplasms. Microarray gene expression analysis has defined two principal types of DLBCL, named for their similarity to normal B cell stages or activation states: a germinal center B-cell (GCB) type, and an activated B-cell (ABC) type. In ABC-DLBCL, a constitutive high-level activity of the NF-kappaB family of transcription factors has been observed (1) and NF-kappaB target genes are more highly expressed in ABC primary tumors than in GCB tumors. Functional studies have shown a constitutive high-level activity of the IkappaB (inhibitor of kappa-B) kinase (IKK) complex. […] Further analysis of DLBCL primary tumors for NF-kappaB target gene expression imply that although CARD11 is required for constitutive IKK activity in all ABC-DLBCL lines, mutations in CARD11 may be the root cause of IKK activation only in lines or tumors with such mutations. In other words, CARD11 mutations may explain NF-kappaB activation in only 10% of ABC-DLBCL cases. […] This process has been termed 'chronic active BCR signaling' (CABS). The goal of this screen is to find small-molecule inhibitors of the CABS pathway found in ABC-DLBCL lines using a cell-based assay that measures IkappaBalpa stability, which has already been extensively validated in the OCI-Ly3 line (PubChem AID:445; REF: 4). […] The assay uses green (CBG68) and red (CBR) emitting beetle luciferases [Chroma-GloTM developed by Promega Corp.] where the green luciferase is fused to IkappaBalpha and the red luciferase is present in its native state. Both luciferase genes are stably present in the TMD8 human ABC DLBCL cell line, but their expression is under the control of tetracycline-inducible promoters. Following the addition of doxycycline to induce expression of the luciferases, the green luminescence in control cultures rises only slowly because the CBG fusion partner IkappaBalpha is targeted by IKK activity for rapid degradation. In contrast, green luminescence rises rapidly in the presence of proteasome inhibitors or IKK inhibitors. The rise in red luminescence of CBR is not affected by proteasome or IKK inhibitors, and serves as normalization for cell number and nonspecific effects. Compounds were screened as a concentration-titration series that ranged from 46 uM to 3 nM.
NCGC Assay Protocol Summary: Cells were seeded in 1536-well plates at 5000 cells/4uL in IMDM medium containing 0.5% FBS, w/o phenol red, 1% penicillin/streptomycin. Then, 23 nL of compounds or DMSO were delivered to each well using a pin tool. One uL 20ng/ml doxycycline was then dispensed into white solid 1536-well plates and the plates were incubated at 37C/5% C02 in a cell incubator for 4 hrs. Then 4 uL luminescent substrate mix (in-house prepared: 150 mM Tris-Cl, pH 7.6, 3 mM MgCl2, 1% Triton X-100, 5 mM DTT, 0.2 mM CoA, 0.15 mM ATP, 5 mM D-luciferin, final concentrations) was added to each well. The plate was incubated at r.t. for 10-15 min. The plates were measured on a ViewLux plate reader for green luminescence (540/20 nm filter) and red luminescence (618/8 nm filter). The green and red luminescent signals were corrected for red and green luminescence filter overlap using previously determined filter calibration constants (determined using the procedure outlined in the Promega Technical Manual; REF 4). The %Activity was determined from the ratio of corrected green/red luminescent values. MG132 were used as control. […] Red luminescent %Activity was normalized to the difference between red luminesence in basal cells (0%Activity) and zero luminescence (-100% Activity). […]
Potency means the concentration at half of the fitted maximal effect.

| Structure (SMILES) | activity change, negative = inhibition | Potency |
| --- | --- | --- |
| CCC(Sc1nc(=O)cc(N)n1-c1cccc(C)c1)C(=O)Nc1cc(C)on1 (centres undefined) | inconclusive: 3.13% |  |
| Cc1ccc(CNc2ccc([N+](=O)[O-])cc2C(N)=O)cc1 | inconclusive: 4.24% |  |
| O=C(COC(=O)CCCN1C(=O)c2cccc3cccc(c23)C1=O)Nc1ccc(Cl)cc1 |  | inconclusive: 0.58 µM [rising, full curve] |
| O=C(N/N=C/c1ccc[nH]1)c1ccccc1OCc1ccc(F)cc1 | inconclusive: 0.27% |  |
| Cc1cc(C(=O)NN=C(CCC(=O)O)c2cccs2)c(C)o1 |  | inconclusive: 5.17 µM [falling, partial curve] |
| COc1cc(C(=O)OCCn2c(=O)c3c(ncn3CCN(C)C)n(C)c2=O)cc(OC)c1OC | inconclusive: 1.82% |  |
| CC1Sc2ccc(S(=O)(=O)N3CCC(C(=O)NCC(C)c4ccccc4)CC3)cc2NC1=O (centres undefined) | inconclusive: -1.33% |  |
| Cc1c(Cl)cccc1NC(=O)Cn1nnc(C(=O)NCc2cccs2)c1N | inactive: 3.72% |  |
| COCCN(CCOC)S(=O)(=O)c1ccc(C(=O)Nc2ccc([N+](=O)[O-])cc2OC)cc1 | inactive: -4.64% |  |
| COC(=O)c1[nH]c2ccccc2c1NC(=O)CN1CCN(c2cccc(Cl)c2)CC1 |  | inconclusive: 12.6 µM [falling, partial curve] |
| O=C(CSc1nnnn1Cc1ccccc1)Nc1cccc(F)c1 | inconclusive: 0.185% |  |
| O=C(C(=O)N1CCN(c2ccccc2)CC1)c1cn(CC(=O)N2CCCCCC2)c2ccccc12 |  | inconclusive: 17.8 µM [falling, single point] |
| Clc1ccc(-c2cnn3c(-c4ccncc4)ccnc23)cc1 | inconclusive: 12.7% |  |
| CC(=O)c1cc(C#N)c(SCCC(C)C)nc1C | inconclusive: -16.9% |  |
| CC(C)(CNC(=O)c1sc2cc(Cl)ccc2c1Cl)N1CCOCC1 | inactive: 19.1% |  |
| C=CCn1c(=O)c2ccccc2n2c(SCc3nc4ccccc4s3)nnc12 |  | inconclusive: 1.16 µM [rising, full curve] |
| CN(C)c1nnnn1-c1ccc(Cl)cc1Cl |  | inconclusive: 35.5 µM [falling, partial curve, poor fit] |
| COCCN(CC(=O)Nc1ccccc1C)S(=O)(=O)c1ccc(S(=O)(=O)N2CCCC2)cc1 | inconclusive: 6.57% |  |
| Cc1nnc(NC(=O)Nc2ccc(Cl)c(Cl)c2)s1 |  | inconclusive: 0.164 µM [rising, full curve, poor fit] |
| COc1ccccc1CN1CCc2c([nH]c3ccccc23)C1 | inconclusive: 1.66% |  |

| Structure (SMILES) | activity change, negative = inhibition | Potency |
| --- | --- | --- |
| COC(=O)c1ccccc1NC(=O)c1ccc(COc2ccc(C)c(C)c2)o1 | inactive: 1.21% |  |
| O=c1[nH]c2cc3c(cc2cc1CN(Cc1ccccc1)Cc1nnnn1Cc1ccco1)OCCO3 | inconclusive: -8.42% |  |
| CCn1c(=O)c(C(=O)NCCCO)c(O)c2ccccc21 |  | inconclusive: 7.08 µM [falling, partial curve, poor fit] |
| Cc1[nH]c2ccccc2c1C(=O)CSc1nc2ccccc2[nH]1 | inconclusive: 5.97% |  |
| CCOC(=O)CSc1cc(=O)n(C)c2cc(Cl)ccc12 | inactive: 1.72% |  |
| CCC(C)(C)n1nnnc1C(c1ccncc1)N1CCC(Cc2ccccc2)CC1 (centres undefined) |  | inconclusive: 0.58 µM [rising, full curve, poor fit] |
| Cc1cccc(N=C2NC(=O)/C(=C/c3cccs3)S2)c1 | inconclusive: 429% |  |
| CNC[C@H]1Oc2ccc(NC(=O)Nc3ccccc3)cc2CC(=O)N([C@H](C)CO)C[C@H]1C | inconclusive: -0.0546% |  |
| CCOc1ccccc1NC(=O)c1c(NCc2ccc(C)o2)sc2c1CCC(C)C2 (centres undefined) |  | inconclusive: 35.5 µM [falling, partial curve] |
| COc1ccc(S(=O)(=O)N2CCN(C(=O)c3cc(-c4ccccc4OC)n[nH]3)CC2)cc1 |  | inconclusive: 12.6 µM [falling, partial curve] |
| CN(C)c1ccc(NC(=O)Nc2cccc3ccccc23)cc1 |  | inconclusive: 31.6 µM [rising, single point] |
| CCCCCc1nnc(NC(=O)c2ccc3nc[nH]c3c2)s1 | inconclusive: 5.94% |  |
| CCc1ccc(OCCNC(=O)c2ccccc2SCc2ccc(F)cc2)cc1 | inconclusive: 0.462% |  |
| Cc1ccc(N(C)S(=O)(=O)c2cc(-c3cnc(C4CC4)o3)ccc2C)cc1 | inactive: -7.58% |  |
| Oc1cc(Nc2cccnc2)cc2cccnc12 |  | inconclusive: 16.4 µM [falling, partial curve, poor fit] |
| COc1cc(/C=N/Nc2ccccc2)ccc1OC(=O)c1cccs1 |  | inconclusive: 8.2 µM [falling, partial curve] |
| CN(C)c1nc(C=C(C#N)C#N)c(Cl)n1-c1ccc(F)cc1 |  | inconclusive: 15.8 µM [cytotoxic, partial curve] |
| O=C1/C(=C/c2ccccc2)N=C(N2CCOCC2)N1c1cccc(Cl)c1 | inconclusive: 0.607% |  |
| Cc1cccc(Cn2nc(C)c(NC(=O)c3ccc(F)cc3)c2C)c1 | inactive: 0.821% |  |

Random excerpt: 2 entries already listed, in no set order.

| Structure (SMILES) | activity change, negative = inhibition | Potency |
| --- | --- | --- |
| CN(C)c1nnnn1-c1ccc(Cl)cc1Cl |  | inconclusive: 35.5 µM [falling, partial curve, poor fit] |
| Cc1nnc(NC(=O)Nc2ccc(Cl)c(Cl)c2)s1 |  | inconclusive: 0.164 µM [rising, full curve, poor fit] |
